Not every detail of the peptide structures is certain; ends, links or a residue may be inferred. Peptide text beside a SMILES is read from it.
Target: T1, SIRT4 (Homo sapiens, UniProt Q9Y6E7)
T1 construct: 6xHis (followed by human rhinovirus 3C protease site) (N); made in house; host or cells: E. coli BL21(DE3), co-expressed with GroEL and GroES
T1 sequence (Q9Y6E7 33-314): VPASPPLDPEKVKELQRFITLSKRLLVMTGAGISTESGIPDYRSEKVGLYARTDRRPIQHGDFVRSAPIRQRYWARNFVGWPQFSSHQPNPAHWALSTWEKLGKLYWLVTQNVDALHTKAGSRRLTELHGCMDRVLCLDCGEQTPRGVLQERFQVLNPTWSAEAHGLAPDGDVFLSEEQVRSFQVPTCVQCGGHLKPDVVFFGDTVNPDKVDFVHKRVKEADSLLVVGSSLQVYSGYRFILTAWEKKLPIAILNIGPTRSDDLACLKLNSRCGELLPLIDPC
Test: HPLC-based SIRT4 kinetics assays (steady-state, acyl-modified peptide substrates)
Format: biochemical
Details: SIRT4 enzyme concentration = 5 μM; NAD 1 mM; 25° C.
From the text: Recombinant SIRT4 protein expression and purification. N-terminally truncated human Sirt4 (33-314 of SEQ ID NO: 2) was cloned into a derivative of pET-15b containing a human rhinovirus 3C Protease cleavage site in place of its thrombin cleavage site. 6×His-Sirt4 was co-expressed with GroEL and GroES in BL21(DE3) E. coli in order to promote proper protein folding. Protein was purified using immobilized-metal affinity chromatography (IMAC) followed by anion-exchange chromatography to remove associated folding chaperones. For some experiments the His-tag was removed using 3C protease. Protein was concentrated, snap frozen in N2(l), and stored at −80° C. HPLC-based SIRT4 kinetics assays. SIRT4 kinetic assays were essentially performed as described by others^3,4. […] Reactions were quenched with formic acid to a final concentration of 0.5% (v/v) and analyzed by HPLC-UV detection (Ultimate 3000 RSLC/VWD-3400). […] Product concentration was measured by peak integration of A280 signals. Initial reaction velocities were determined in at least duplicate and fit to a modified Briggs-Haldane equation, which substituted kcat×[SIRT4] for Vmax and allowed determination of kinetic parameters, kcat, Km and kcat/Km and their associated error (±SEM), using GraphPad Prism 5. SIRT4's catalytic efficiency towards the various acyl-modified peptide substrates was assessed (Table 1 below).

SMILES: CC[C@H](C)[C@H](NC(=O)[C@@H](NC(=O)[C@H](C)NC(=O)[C@H](CCCCNC(C)=O)NC(=O)[C@H](CC(=O)O)NC(=O)[C@@H](NC(=O)[C@H](CCC(=O)O)NC(=O)[C@@H](NC(=O)[C@@H](N)CCC(=O)O)[C@@H](C)CC)[C@@H](C)O)[C@@H](C)O)C(=O)NCC(=O)N[C@@H](Cc1c[nH]c2ccccc12)C(=O)O [DLAT K259 Acetyl] (H-EIETDK(Ac)ATIGW-OH)
- kcat: 0.0011 ± 0.0001 s⁻¹
